{"source": "PubChem BioAssay AID1259308 (NCATS, 2017)", "screen": "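Knock-downs that increase output of a recombinant reporter protein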 (primary screen)", "cells": "human HEK293 embryonic kidney cells stably expressing firefly luciferase (HEK-CMV-Luc2-Hygro)", "reagents": "single siRNA against human genes, 0.8 pmol siRNA per well", "duration": "72 h", "read-out": "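Reporter luminescence and viable-cell signal on separate replicate plates, given as percent of non-targeting control and median/MAD z-scores, plus per-cell luciferase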", "scale": "total luciferase, z-score: higher = more reporter protein produced", "rule for the call": "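Active when the median/MAD z-score for overall luciferase is greater than 3; a gene was taken forward for validation with new siRNAs if at least two of its three siRNAs passed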", "calls": "active = raised luciferase; inactive = no rise", "note": "Here is an unselected part of about 59,000 reagents tested. Of all reagents, about 1,510 (2.6%) got an active call. 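Calls use total luciferase alone and ignore viability, so some active siRNAs may act by altering cell number.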 The numbers tell different reagents against one gene apart. Not all columns of the deposit are shown."}
{"gene symbol": "TMEM141", "reagent no.": 1, "total luciferase, z-score": -0.603, "Call": "inactive"}
{"gene symbol": "TMEM141", "reagent no.": 2, "total luciferase, z-score": 0.615, "Call": "inactive"}
{"gene symbol": "TMEM141", "reagent no.": 3, "total luciferase, z-score": 1.79, "Call": "inactive"}
{"gene symbol": "ZRANB1", "reagent no.": 1, "total luciferase, z-score": 1.27, "Call": "inactive"}
{"gene symbol": "ZRANB1", "reagent no.": 2, "total luciferase, z-score": -0.577, "Call": "inactive"}
{"gene symbol": "ZRANB1", "reagent no.": 3, "total luciferase, z-score": -0.156, "Call": "inactive"}

Laid out differently: 2 of the entries above.
gene symbol	reagent no.	total luciferase, z-score	Call
ZRANB1	2	-0.577	inactive
ZRANB1	3	-0.156	inactive

Next results follow.
{"gene symbol": "VDAC2", "reagent no.": 1, "total luciferase, z-score": -0.578, "Call": "inactive"}
{"gene symbol": "VDAC2", "reagent no.": 2, "total luciferase, z-score": -0.158, "Call": "inactive"}
{"gene symbol": "VDAC2", "reagent no.": 3, "total luciferase, z-score": 1.14, "Call": "inactive"}
{"gene symbol": "DCAF4L1", "reagent no.": 1, "total luciferase, z-score": -0.59, "Call": "inactive"}
{"gene symbol": "DCAF4L1", "reagent no.": 2, "total luciferase, z-score": 1.29, "Call": "inactive"}
{"gene symbol": "DCAF4L1", "reagent no.": 3, "total luciferase, z-score": 0.93, "Call": "inactive"}
